Measured values published in patent US20050004029A1, “Methods and compositions for treating vascular leak using hepatocyte growth factor” (priority 2001, published 2005).
At least one compound was matched to its structure with a doubt left.

Experiments:
Format in all cases: cell-based
PI-3′ kinase = assay: Akt phosphorylation by western immunoblotting (PI-3′ kinase activity); details: LY294002 25 μM, 30-60 min; HGF up to 100 ng/ml
Method: Endothelial cell monolayers grown to confluence in 12-well plates and challenged with HGF were lysed with 100 μl of 2×SDS sample buffer, and cell lysates were transferred into microcentrifuge tubes and boiled for 5 min. After a brief spin, proteins from 10 μl cell lysates were separated on 12% SDS-PAGE and transferred to nitrocellulose (Schleicher & Schuell, Keene, N.H.) (30V, 18 h). After blocking with PBST (PBS with 0.1% Tween 20) containing 5% non-fat milk for 1 hr, nitrocellulose blots were reacted with primary antibodies diluted in PBST containing 5% BSA for 1 hr, washed with PBST (3×10 min), incubated with peroxidase-conjugated secondary antibodies (goat anti-rabbit IgG, 1:10,000 dilution, Sigma; or goat anti-mouse IgG, 1:10,000 dilution, Bio-Rad Labs, Richmond, Calif.) diluted in PBST with 5% non-fat milk for 1 hr and again washed with PBST (3×10 min). Finally, immunoreactive proteins were detected using ECL. The relative intensities of the protein bands were quantified by scanning densitometry.
To identify key signaling mediators involved in HGF-induced barrier protection, the role of PI-3′-kinase in HGF-stimulated barrier improvement was examined by measuring HGF-dependent phosphorylation of the serine/threonine kinase, Akt, a well-accepted method of defining PI-3′ kinase activity. Cell homogenates were analyzed by western immunoblotting with anti-phospho-Akt^ser73 antibody. […]

[1] = system: Human pulmonary artery endothelial cells; assay: Transendothelial electrical resistance (TER) of human pulmonary artery endothelial cell monolayers; details: pretreatment LY294002 25 μM, UO126 10 μM, SB203580 20 μM, Ro-31-2880 10 μM; then HGF 20 ng/ml
Method: Bovine pulmonary artery endothelial cells were purchased from the American Type Culture Collection (ATCC®, Rockville, Md.) and utilized at passage 19-24. Cells were maintained in Medium 199 (Life Technologies, Rockville, Md.) supplemented with 20% (v/v) colostrum-free bovine serum (CFBS) (Irvine Scientific, Santa Ana, Calif.), 15 μg/ml endothelial cell growth supplement (Upstate Biotechnology, Lake Placid, N.Y.), 1% antibiotic and antimycotic, and 0.1 mM non-essential amino acids (Life Technologies). Human pulmonary artery endothelial cells were purchased from Clonetics (Walkersville, Md.), cultured in EBM-2 complete medium (Clonetics) and utilized at passage 5-10. […]
Electrical resistance of EC monolayers was measured using electrical cell impedance sensor system (Applied Biophysics Inc., Troy, N.Y.) as described in Garcia, J. G. N. et al. (2000) J. Appl. […] Cells grown on gold microelectrodes (10^−3 cm^2) in polycarbonate wells act as insulating particles, and the resistance across the monolayers (transendothelial electrical resistance, or TER) is measured in real time. […] The in-phase and out-of-phase voltages between the electrodes were monitored in real time with the lock-in amplifier and converted to scalar measurements of transendothelial impedance, of which resistance was the primary focus. […]

human endothelial cells = assay: β-catenin immunofluorescent microscopy; details: LY294002
Method: (§1) Endothelial cell monolayers grown on gelatinized cover slips were rinsed with M199 and incubated with agonists in the same medium in a 37° C. incubator (5% CO2). Monolayers were then rinsed with PBS (3×2 min), fixed in 4% paraformaldehyde for 10 min, again rinsed with PBS (3×2 min), and permeabilized with 0.25% Triton X-100 for 5 min. Cells were then washed briefly with PBS (3×2 min), blocked with PBS containing 2% BSA for 30 min and incubated with 1 Unit/mL of Texas Red-X phalloidin (Molecular Probes, Eugene, Oreg.), β-catenin antibody (Transduction Laboratories, Lexington, Ky.), glycogen synthase kinase-3 β (GSK-3β) (Santa Cruz Biotechnology, Inc., Santa Cruz, Calif.), or mono-phosphorylated MLC antisera (see Garcia, J. G. N. et al. (2001) J. Clin. Invest. 108:689-711) for 1 hr. After washing with PBS (3×2 min), cover slips were mounted on slides using SlowFade mounting medium (Molecular Probes). Cells were analyzed using a 60× oil objective on a Nikon Eclipse TE 300 microscope. Images were captured by Sony Digital Photo camera DKC 5000. The same exposure time was applied to all samples within one experiment. […]

[2] = system: human endothelial monolayers; assay: F-actin immunofluorescent microscopy (cortical actin ring); details: LY294002 25 μM
Method: as §1, with “5000.” for “5000. The same exposure time was applied to all samples within one experiment.”
The effect of HGF on the spatial localization of polymerized actin in human endothelial monolayers was investigated by immunofluorescent microscopy. […] F-actin staining was assessed with Texas red phalloidin and myosin light chain staining evaluated with anti-monophosphorylated myosin light chain polyclonal antibody.

## O=c1cc(N2CCOCC2)oc2c(-c3ccccc3)cccc12 [LY294002, reference compound]
PI-3′ kinase
  effect on HGF-mediated Akt phosphorylation: abolished
[1]
  effect on HGF-induced increases in TER, in words: significantly attenuated
Human endothelial cells
  effect on HGF-induced β-catenin response: diminished this response
[2]; 1 hr
  effect on Sph 1-P-induced actin reorganization: did not affect
[2]; 1 hr or SB203580 20 μM, 30 min, HGF 20 ng/ml
  effect on HGF-elicited cortical actin ring formation / actin remodeling: abolished
